Results on two molecules are retold here after paper PMC7532188.

These are yes or no findings as the source states them, for the method shown. For some assays here: Binding seen in cells or lysates may run through a third protein. Some entries that bind do so weakly or less than the wild type.

Test [1] deals with TASOR (transgene activation suppressor), exogenously expressed in HUSH triple KO cells (human) (UniProt Q9UK61). Put plainly: co-IP; pairwise combinations of HUSH subunits exogenously expressed in HUSH triple KO cells; reciprocal co-IP and immunoblot; lysis in 1% NP-40 in TBS with benzonase, 2 h at 4 °C. (In general: In western blotting, separated proteins are transferred to a membrane and probed.)

Test [2] concerns the target TASOR(106–332), DUF3715 / PARP domain (human) (UniProt Q9UK61). Put plainly: NMR relaxation (T1/T2 ratio, tumbling correlation time); TASOR(106–332) at 250 µM in PBS pH 7.0, 1 mM TCEP; τC ~15 ns; both purified.

Regarding “M-phase phosphoprotein 8 (MPP8), exogenously expressed in HUSH triple KO cells (from UniProt Q99549-1 1-860)”, the binding result in test [1] was “binds”.

B1: TASOR(106–332), DUF3715 / PARP domain (domain or fragment, UniProt Q9UK61-1 106-332)
chain: SREKKALFQPLTPGSREFEDVVNILHSSYLEPTSVTNFNYRRACLVHNELLEKEFTEKRRELKFDGRLDKELSESYAFLMVDRYQVQTICEKGLHVGQSKITILGSPSMGVYLSRYADLLQANPLDTGAMGDVVIFKIMKGKIKSIYDPMGVKSLESMLNKSALDPTPKHECHVSKNANRITSLLAYRAYELTQYYFYEYGFDELRRRPRHVCPYAVVSFTYKDDIQ
With B1, in test [2], the binding entry is reported as “no binding (tested: 250 µM)”.
